Results as given in the supplement of paper PMC10331698.
± gives the standard deviation of the averaged measurements. Most values lie at the level of the controls, where differences are scatter.

Key:
Assay in all cases: level (log10 ratio to DMSO vehicle control); higher = higher biomarker level / cell amount than vehicle control
[1] = compound: FC(F)(F)C(F)(F)C(F)(F)C(F)(F)C(F)(F)C(F)(F)C(F)(F)I [1-Iodopentadecafluoroheptane]; conditions: in DMSO
Description: (§1)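 BioMAP Diversity Plus panel of 12 human primary cell co-culture systems (3C, 4H, LPS, SAg, BT, BF4T, BE3C, CASM3C, HDF3CGF, KF3CT, MyoF, Mphg). Compounds were added 1 h before stimulation and left for 24 h (MyoF 48 h; BT 72 h for soluble read-outs or 6 d for IgG). Biomarkers were read by ELISA, cytotoxicity by SRB, PBMC viability and proliferation by Alamar Blue. Each well value was divided by the mean of 8 DMSO control wells on the same plate and log10 transformed; duplicate blinded samples were tested at 4 concentrations.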

[2] = compound: NC(=O)C(F)(F)C(F)(F)C(F)(F)C(F)(F)C(F)(F)C(F)(F)C(F)(F)F [Perfluorooctanamide]; conditions: 2200 nM; in DMSO
Description: as §1

[3] = compound: O=C(O)C(F)(F)C(F)(F)C(F)(F)C(F)(F)C(F)(F)C(F)(F)C(F)(F)C(F)F [9-H-Perfluorononanoic acid]; conditions: 2200 nM; in DMSO
Description: as §1

[4] = compound: O=C(O)C(F)(F)C(F)(F)C(F)(F)F [Perfluorobutanoic acid]; conditions: 2200 nM; in DMSO
Description: as §1

[5] = compound: O=C(O)C(F)(F)OC(F)(F)C(F)(F)OC(F)(F)C(F)(F)C(F)(F)C(F)(F)F [Perfluoro-3,6-dioxadecanoic acid]; conditions: 2200 nM; in DMSO
Description: as §1

[6] = compound: FC(F)(F)C(F)(F)C(F)(F)C(F)(F)C(F)(F)C(F)(F)C(F)(F)CCI [1-Iodo-1H,1H,2H,2H-perfluorononane]; conditions: in DMSO
Description: as §1

[7] = compound: C=C(C)C(=O)OCC(F)(F)C(F)(F)C(F)(F)F [2,2,3,3,4,4,4-Heptafluorobutyl methacrylate]; conditions: 2200 nM; in DMSO
Description: as §1

[8] = compound: O=C(O)C(F)(F)C(F)(F)F [Perfluoropropanoic acid]; conditions: 2200 nM; in DMSO
Description: as §1

[9] = compound: O=C(O)C(F)(F)OC(F)(F)C(F)(F)OC(F)(F)C(=O)O [Perfluoro-3,6-dioxaoctane-1,8-dioic acid]; conditions: 2200 nM; in DMSO
Description: as §1

[10] = compound: OCCC(F)(F)C(F)(F)C(F)(F)C(F)(F)C(F)(F)C(F)(F)C(F)(F)C(F)(F)F [8:2 Fluorotelomer alcohol]; conditions: 2200 nM; in DMSO
Description: as §1

[11] = compound: FC(F)C(F)(F)COCC1CO1 [((2,2,3,3-Tetrafluoropropoxy)methyl)oxirane]; conditions: 2200 nM; in DMSO
Description: as §1

[12] = compound: OCC(F)(F)C(F)(F)C(F)(F)C(F)(F)C(F)(F)C(F)(F)C(F)(F)C(F)(F)C(F)(F)C(F)(F)C(F)(F)F [11:1 Fluorotelomer alcohol]; conditions: in DMSO
Description: as §1

[13] = compound: O=S(=O)(Cl)C(F)(F)C(F)(F)C(F)(F)C(F)(F)C(F)(F)C(F)(F)C(F)(F)C(F)(F)F [Perfluoro-1-octanesulfonyl chloride]; conditions: 2200 nM; in DMSO
Description: as §1

[14] = compound: O=C(O)C(F)(F)C(F)(F)OC(F)(F)F [Perfluoro-3-methoxypropanoic acid]; conditions: 2200 nM; in DMSO
Description: as §1

[15] = compound: O=C(O)C=CC(F)(C(F)(F)F)C(F)(F)F [3-(Perfluoroisopropyl)-2-propenoic acid]; conditions: in DMSO
Description: as §1

[16] = compound: O=C(O)C(F)(F)C(F)(F)C(F)(F)C(F)(F)C(F)(F)C(F)(F)C(F)(F)C(F)(F)C(F)(F)C(F)(F)F [Perfluoroundecanoic acid]; conditions: in DMSO
Description: as §1

[17] = compound: C=CC(=O)OCC(F)(F)C(F)(F)C(F)(F)C(F)(F)COC(=O)C=C [1H,1H,6H,6H-Perfluorohexane-1,6-diol diacrylate]; conditions: 2200 nM; in DMSO
Description: as §1

[18] = compound: O=P(O)(O)CCC(F)(F)C(F)(F)C(F)(F)C(F)(F)C(F)(F)C(F)(F)C(F)(F)C(F)(F)F [((Perfluorooctyl)ethyl)phosphonic acid]; conditions: 2200 nM; in DMSO
Description: as §1

Test System | level (log10) ([1]; 740 nM) | level (log10) ([1]; 2200 nM) | level (log10) ([1]; 6700 nM) | level (log10) ([1]; 20000 nM) | level (log10) [2] | level (log10) [3] | level (log10) [4] | level (log10) [5] | level (log10) ([6]; 740 nM) | level (log10) ([6]; 2200 nM) | level (log10) ([6]; 6700 nM) | level (log10) ([6]; 20000 nM) | level (log10) [7] | level (log10) [8] | level (log10) [9] | level (log10) [10] | level (log10) [11] | level (log10) ([12]; 370 nM) | level (log10) ([12]; 1100 nM) | level (log10) ([12]; 3300 nM) | level (log10) ([12]; 10000 nM) | level (log10) [13] | level (log10) [14] | level (log10) ([15]; 2200 nM) | level (log10) ([15]; 6700 nM) | level (log10) ([15]; 20000 nM) | level (log10) ([15]; 60000 nM) | level (log10) ([16]; 740 nM) | level (log10) ([16]; 2200 nM) | level (log10) [17] | level (log10) [18]
SAg:CD38 | -0.0035 ± 0.005 | -0.016 ± 0.028 | -0.0085 ± 0.029 | -0.005 ± 0.024 | 0.012 ± 0.0057 | 0.0135 ± 0.023 | 0.007 ± 0.0028 | 0 ± 0.0099 | 0.0165 ± 0.015 | 0.0105 ± 0.0092 | 0.007 ± 0.03 | -0.007 ± 0.042 | 0.01 ± 0.081 | 0.0725 ± 0.0078 | 0.006 ± 0.042 | -0.003 ± 0.0071 | -0.0025 ± 0.0092 | 0.0065 ± 0.15 | -0.0115 ± 0.084 | -0.014 ± 0.073 | 0.0035 ± 0.042 | -0.0065 ± 0.0021 | -0.0065 ± 0.042 | -0.0015 ± 0.019 | -0.0125 ± 0.026 | 0.001 ± 0.0071 | -0.019 ± 0.0085 | 0.0005 ± 0.005 | -0.0145 ± 0.005 | -0.005 ± 0.013 | -0.004 ± 0.0071
BE3C:CD87/uPAR | 0.0085 ± 0.00071 | -0.007 ± 0.013 | 0.001 ± 0.034 | 0.008 ± 0.011 | -0.0135 ± 0.018 | 0.0325 ± 0.05 | 0.0105 ± 0.019 | 0.0125 ± 0.033 | 0.015 ± 0.013 | 0.0055 ± 0.0035 | 0.0115 ± 0.018 | 0.016 ± 0.0014 | 0.0065 ± 0.026 | 0.006 ± 0.011 | 0.008 ± 0.045 | -0.0205 ± 0.025 | -0.0005 ± 0.035 | 0.0095 ± 0.0092 | -0.035 ± 0.0014 | -0.0795 ± 0.012 | -0.0385 ± 0.026 | 0.057 ± 0.055 | 0.021 ± 0.045 | 0.023 ± 0.05 | 0.005 ± 0.0085 | 0.002 ± 0.045 | 0.052 ± 0.038 | 0.0185 ± 0.0064 | 0.0195 ± 0.016 | 0.021 ± 0.028 | -0.003 ± 0.04
HDF3CGF:TIMP-2 | 0.0045 ± 0.026 | 0.0015 ± 0.036 | 0.015 ± 0.0057 | 0.0035 ± 0.0035 | -0.0145 ± 0.029 | -0.0785 ± 0.056 | -0.022 ± 0.0071 | 0.0005 ± 0.0078 | 0.001 ± 0.0057 | -0.0035 ± 0.018 | 0.0165 ± 0.011 | 0.0055 ± 0.0064 | -0.025 ± 0.021 | -0.0265 ± 0.0021 | -0.013 ± 0.048 | -0.0745 ± 0.13 | -0.0165 ± 0.033 | -0.023 | 0.001 ± 0.0042 | -0.045 ± 0.016 | -0.0325 ± 0.013 | -0.0025 ± 0.04 | -0.0155 ± 0.013 | -0.005 ± 0.011 | -0.0105 ± 0.0021 | -0.0045 ± 0.011 | -0.0115 ± 0.012 | -0.0405 ± 0.063 | 0.018 ± 0.071 | -0.006 ± 0.079 | 0.0485 ± 0.037
lMphg:sIL-10 | -0.0435 ± 0.025 | -0.0455 ± 0.03 | 0.004 ± 0.081 | -0.0995 ± 0.021 | 0.0285 ± 0.04 | -0.0175 ± 0.0064 | 0.0485 ± 0.019 | -0.0355 ± 0.0078 | -0.0445 ± 0.073 | -0.0395 ± 0.025 | -0.0685 ± 0.00071 | -0.072 ± 0.021 | 0.001 ± 0.0085 | -0.0265 ± 0.057 | -0.0565 ± 0.061 | -0.056 ± 0.0085 | -0.0155 ± 0.04 | 0.015 ± 0.0085 | -0.0255 ± 0.069 | -0.0875 ± 0.066 | -0.216 ± 0.082 | 0.0245 ± 0.11 | -0.003 ± 0.044 | -0.003 ± 0.0071 | -0.055 ± 0.064 | -0.048 ± 0.017 | -0.082 ± 0.0071 | -0.022 ± 0.031 | 0.0125 ± 0.098 | -0.0115 ± 0.0092 | -0.007 ± 0.021
SAg:CXCL9/MIG | -0.016 ± 0.0085 | -0.0035 ± 0.0021 | 0.006 ± 0.0071 | 0.02 ± 0.0042 | -0.016 ± 0.017 | -0.009 ± 0.016 | -0.0165 ± 0.023 | -0.002 ± 0.025 | 0.0175 ± 0.011 | 0.003 ± 0.018 | -0.009 ± 0.0071 | 0.006 ± 0.0057 | 0.0125 ± 0.016 | 0.007 ± 0.013 | 0.0065 ± 0.00071 | 0.008 ± 0.0099 | 0.0025 ± 0.0035 | 0.007 ± 0.0099 | -0.004 ± 0.03 | -0.0175 ± 0.035 | 0.012 ± 0.03 | -0.0035 ± 0.0021 | 0.0045 ± 0.0035 | 0.0055 ± 0.023 | -0.0105 ± 0.025 | 0.013 | -0.006 ± 0.0085 | 0.0015 ± 0.012 | -0.0095 ± 0.0021 | 0.0135 ± 0.03 | 0.0085 ± 0.012
LPS:CXCL8/IL-8 | 0.0145 ± 0.044 | -0.0045 ± 0.042 | 0.026 ± 0.055 | 0.0325 ± 0.005 | -0.018 ± 0.035 | 0.022 ± 0.088 | 0.018 ± 0.041 | -0.023 ± 0.041 | 0.023 ± 0.016 | 0.0235 ± 0.021 | 0.005 ± 0.072 | -0.001 ± 0.082 | -0.013 ± 0.017 | -0.0055 ± 0.047 | 0.0255 ± 0.044 | -0.0095 ± 0.076 | -0.0295 ± 0.039 | 0.0285 ± 0.0035 | -0.007 ± 0.011 | -0.013 ± 0.0014 | -0.0305 ± 0.039 | 0.002 ± 0.064 | 0.032 ± 0.0085 | -0.0075 ± 0.044 | -0.0055 ± 0.019 | -0.0205 ± 0.023 | -0.0015 ± 0.019 | 0.017 ± 0.0028 | -0.006 ± 0.03 | -0.0105 ± 0.049 | -0.0175 ± 0.019
HDF3CGF:CXCL9/MIG | -0.008 ± 0.027 | -0.011 ± 0.018 | -0.016 ± 0.0042 | 0.0015 ± 0.0064 | -0.011 ± 0.0099 | -0.0405 ± 0.033 | 0.025 ± 0.02 | 0.007 ± 0.038 | 0.0125 ± 0.011 | -0.0015 ± 0.015 | -0.035 ± 0.0071 | -0.0875 ± 0.049 | -0.009 ± 0.011 | -0.0285 ± 0.047 | -0.0045 ± 0.0092 | -0.0075 ± 0.03 | 0.0035 ± 0.022 | -0.01 ± 0.0042 | 0.009 | -0.0145 ± 0.00071 | 0.009 ± 0.05 | -0.0055 ± 0.0021 | 0.007 ± 0.0057 | 0.011 ± 0.014 | 0.017 ± 0.0071 | 0.02 ± 0.011 | 0.011 ± 0.023 | -0.0005 ± 0.032 | 0.001 ± 0.0057 | -0.303 ± 0.021 | 0.093 ± 0.016
